Here are results for one compound from patent US20230086303A1 (priority 2016, published 2023).

The conditions of series [1]: in vivo; cited from earlier work.
Series [2] is described as follows: Projected steady-state pharmacokinetics, once-weekly transdermal vs 10 mg oral donepezil. To be noted: at steady state.

Turning to `COc1cc2c(cc1OC)C(=O)C(CC1CCN(Cc3ccccc3)CC1)C2` (centres unmarked) [donepezil], the half-life result in series [1] is recorded as “greater than 48 hours”. The “Geometric mean Cmin” value in series [2] came out at 30.8 ng/mL.
